# Assay results from patent US20260183411A1, “TARGETING SORTILIN” (priority 2024, published 2026).
# Not every detail of the peptide structures is certain; ends, links or a residue may be inferred.
# Assay: Circular dichroism (secondary structure)
# Type: physicochemical
# Settings: PBS, pH 7.4
row,Compound,secondary structure (CD)
1,CC(C)C[C@H](NC(=O)[C@H](CCCNC(=N)N)NC(=O)[C@H](CC(C)C)NC(=O)[C@H](C)NC(=O)[C@H](CC(C)C)NC(=O)[C@H](CCCNC(=N)N)NC(=O)[C@H](CCC(N)=O)NC(=O)[C@H](CC(C)C)NC(=O)[C@H](C)NC(=O)[C@@H]1CCCN1C(=O)[C@H](Cc1c[nH]c2ccccc12)NC(=O)[C@@H]1CCCN1C(=O)[C@H](C)NC(=O)[C@H](CCCNC(=N)N)NC(=O)[C@@H]1CCCN1C(=O)[C@H](CC(=O)O)NC(=O)[C@@H](N)CC(=O)O)C(=O)O [PRGN_RL],random coil secondary structure
2,CC(C)C[C@H](NC(=O)[C@H](CC(C)C)NC(=O)[C@H](CCC(N)=O)NC(=O)[C@H](CCCNC(=N)N)NC(=O)[C@H](CC(C)C)NC(=O)[C@H](C)NC(=O)[C@@H]1CCCN1C(=O)[C@H](CC(=O)O)NC(=O)[C@H](CCCNC(=N)N)NC(=O)[C@H](CC(C)C)NC(=O)[C@@H]1CCCN1C(=O)[C@H](C)NC(=O)[C@H](CC(=O)O)NC(=O)[C@H](Cc1c[nH]c2ccccc12)NC(=O)[C@H](CCCNC(=N)N)NC(=O)[C@@H]1CCCN1C(=O)[C@H](C)N)C(=O)O [PRGN_WT],random coil secondary structure
